From the supplement of paper PMC12823440, “Inhibitors supercharge kinase turnover through native proteolytic circuits” (Nature, 2025)
The list shows a part of the results. Hit calls seldom repeat between salt and free forms of one compound.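 Kinases were expressed as nanoluciferase fusions in K562 cells and luminescence was read every 4 h between 2 and 18 h as percent of control, DMSO set to 100% and a positive control to 0%. A time point counts as decreased when the signal drops significantly (2 sigma). The hit call is the authors' own, does not follow from the count of time points alone, and its rule is not shown.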

Protein sequences, listed by entry. Tags and fused reporters are not part of them. Lines headed by an entry give the natural chain unless they say otherwise; changes in a name come on top.
UniProt P00519, whole entry: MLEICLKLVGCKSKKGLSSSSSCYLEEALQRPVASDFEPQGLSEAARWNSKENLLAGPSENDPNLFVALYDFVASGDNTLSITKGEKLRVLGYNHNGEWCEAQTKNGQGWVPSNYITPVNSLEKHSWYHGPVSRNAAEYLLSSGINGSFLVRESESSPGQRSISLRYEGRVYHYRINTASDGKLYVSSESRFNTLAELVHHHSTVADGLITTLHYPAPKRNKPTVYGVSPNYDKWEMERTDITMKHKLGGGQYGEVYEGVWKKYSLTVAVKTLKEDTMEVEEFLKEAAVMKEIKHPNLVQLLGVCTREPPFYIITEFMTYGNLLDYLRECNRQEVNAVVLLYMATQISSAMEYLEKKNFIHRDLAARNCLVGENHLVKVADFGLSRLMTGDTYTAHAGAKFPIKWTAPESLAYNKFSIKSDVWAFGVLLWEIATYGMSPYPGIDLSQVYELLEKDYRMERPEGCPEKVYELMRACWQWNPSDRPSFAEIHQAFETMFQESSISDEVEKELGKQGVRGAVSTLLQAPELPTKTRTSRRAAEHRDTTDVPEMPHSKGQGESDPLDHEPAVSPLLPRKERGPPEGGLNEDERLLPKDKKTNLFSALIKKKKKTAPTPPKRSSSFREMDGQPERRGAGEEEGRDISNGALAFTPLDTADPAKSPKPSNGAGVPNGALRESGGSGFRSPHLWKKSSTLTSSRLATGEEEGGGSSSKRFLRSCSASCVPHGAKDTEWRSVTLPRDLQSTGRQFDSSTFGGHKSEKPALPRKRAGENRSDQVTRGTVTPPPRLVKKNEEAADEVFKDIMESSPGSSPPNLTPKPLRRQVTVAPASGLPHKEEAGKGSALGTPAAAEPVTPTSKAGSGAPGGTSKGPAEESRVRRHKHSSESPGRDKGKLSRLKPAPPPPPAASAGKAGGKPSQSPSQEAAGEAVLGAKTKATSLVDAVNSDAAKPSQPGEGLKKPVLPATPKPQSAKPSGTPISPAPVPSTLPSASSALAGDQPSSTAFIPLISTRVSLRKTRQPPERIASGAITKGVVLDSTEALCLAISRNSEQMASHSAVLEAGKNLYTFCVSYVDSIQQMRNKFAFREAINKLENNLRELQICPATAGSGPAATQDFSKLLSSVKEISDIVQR
UniProt P31749: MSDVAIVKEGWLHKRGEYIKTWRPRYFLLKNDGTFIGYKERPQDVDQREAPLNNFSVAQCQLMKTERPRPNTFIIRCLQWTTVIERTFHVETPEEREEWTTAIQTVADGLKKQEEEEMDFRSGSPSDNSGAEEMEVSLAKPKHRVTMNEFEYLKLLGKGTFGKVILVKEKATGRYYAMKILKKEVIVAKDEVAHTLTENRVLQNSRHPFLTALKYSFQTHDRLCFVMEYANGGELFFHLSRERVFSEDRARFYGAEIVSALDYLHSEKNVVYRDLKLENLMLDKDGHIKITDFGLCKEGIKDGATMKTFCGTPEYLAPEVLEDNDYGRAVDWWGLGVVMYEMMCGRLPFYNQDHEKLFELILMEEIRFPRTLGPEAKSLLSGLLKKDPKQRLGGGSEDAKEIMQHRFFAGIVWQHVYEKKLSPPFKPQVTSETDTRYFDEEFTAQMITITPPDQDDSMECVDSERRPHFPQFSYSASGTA
UniProt P10398: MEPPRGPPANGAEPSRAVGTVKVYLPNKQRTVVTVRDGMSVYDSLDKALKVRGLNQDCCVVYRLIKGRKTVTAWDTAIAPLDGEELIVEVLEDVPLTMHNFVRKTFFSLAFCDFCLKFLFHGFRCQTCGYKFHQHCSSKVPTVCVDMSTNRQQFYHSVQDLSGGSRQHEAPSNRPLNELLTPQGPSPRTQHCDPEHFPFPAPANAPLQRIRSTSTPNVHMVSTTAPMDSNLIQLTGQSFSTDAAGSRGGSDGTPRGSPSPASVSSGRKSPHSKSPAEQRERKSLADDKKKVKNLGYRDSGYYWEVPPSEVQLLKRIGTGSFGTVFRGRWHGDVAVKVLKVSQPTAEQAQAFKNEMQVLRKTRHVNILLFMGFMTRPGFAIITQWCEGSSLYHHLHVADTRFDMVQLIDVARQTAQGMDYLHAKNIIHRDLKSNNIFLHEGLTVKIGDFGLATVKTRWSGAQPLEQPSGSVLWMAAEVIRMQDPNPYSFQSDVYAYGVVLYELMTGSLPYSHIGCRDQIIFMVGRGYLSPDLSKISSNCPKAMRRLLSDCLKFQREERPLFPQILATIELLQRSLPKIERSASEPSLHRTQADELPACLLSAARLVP
UniProt O14965: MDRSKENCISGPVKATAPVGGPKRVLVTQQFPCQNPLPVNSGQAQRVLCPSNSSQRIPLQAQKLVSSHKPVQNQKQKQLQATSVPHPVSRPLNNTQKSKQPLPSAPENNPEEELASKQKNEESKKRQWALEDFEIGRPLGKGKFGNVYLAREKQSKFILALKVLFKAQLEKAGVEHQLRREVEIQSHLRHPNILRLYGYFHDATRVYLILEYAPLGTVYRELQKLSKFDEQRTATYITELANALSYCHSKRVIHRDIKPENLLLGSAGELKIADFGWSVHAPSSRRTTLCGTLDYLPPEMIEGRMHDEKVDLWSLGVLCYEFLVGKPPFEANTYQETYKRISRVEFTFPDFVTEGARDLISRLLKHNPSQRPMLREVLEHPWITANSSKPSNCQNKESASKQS
UniProt Q96GD4, whole entry: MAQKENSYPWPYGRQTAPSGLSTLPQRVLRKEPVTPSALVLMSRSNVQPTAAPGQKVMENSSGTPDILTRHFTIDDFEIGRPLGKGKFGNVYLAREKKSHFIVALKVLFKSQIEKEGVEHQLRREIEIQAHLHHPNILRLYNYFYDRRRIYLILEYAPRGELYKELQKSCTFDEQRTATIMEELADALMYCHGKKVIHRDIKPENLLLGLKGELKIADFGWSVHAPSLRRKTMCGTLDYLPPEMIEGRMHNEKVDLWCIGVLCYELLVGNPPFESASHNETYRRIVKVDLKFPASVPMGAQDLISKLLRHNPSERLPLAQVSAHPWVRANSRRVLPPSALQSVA
UniProt Q9UQB9: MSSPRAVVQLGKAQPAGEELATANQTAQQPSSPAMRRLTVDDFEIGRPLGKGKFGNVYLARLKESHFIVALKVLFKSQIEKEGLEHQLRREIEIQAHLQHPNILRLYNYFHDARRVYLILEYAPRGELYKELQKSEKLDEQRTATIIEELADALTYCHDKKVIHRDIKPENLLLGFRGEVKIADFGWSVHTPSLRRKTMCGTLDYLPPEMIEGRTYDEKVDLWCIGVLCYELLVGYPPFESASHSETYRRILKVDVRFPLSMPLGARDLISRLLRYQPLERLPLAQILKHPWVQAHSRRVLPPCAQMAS
UniProt P51451: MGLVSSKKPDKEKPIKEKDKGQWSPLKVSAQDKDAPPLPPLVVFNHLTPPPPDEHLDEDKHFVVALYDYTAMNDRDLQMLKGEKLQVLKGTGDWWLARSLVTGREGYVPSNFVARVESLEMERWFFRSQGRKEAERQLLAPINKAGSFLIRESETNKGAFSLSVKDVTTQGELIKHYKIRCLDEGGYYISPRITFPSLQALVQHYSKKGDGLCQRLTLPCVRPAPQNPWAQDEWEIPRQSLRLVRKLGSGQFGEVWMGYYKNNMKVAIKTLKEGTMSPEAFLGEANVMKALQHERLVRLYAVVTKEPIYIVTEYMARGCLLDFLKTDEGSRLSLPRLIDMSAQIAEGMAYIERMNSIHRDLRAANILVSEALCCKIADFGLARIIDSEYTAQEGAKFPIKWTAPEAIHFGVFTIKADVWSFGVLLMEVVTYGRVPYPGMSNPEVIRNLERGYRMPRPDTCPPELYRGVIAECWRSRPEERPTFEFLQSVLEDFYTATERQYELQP
UniProt P51813: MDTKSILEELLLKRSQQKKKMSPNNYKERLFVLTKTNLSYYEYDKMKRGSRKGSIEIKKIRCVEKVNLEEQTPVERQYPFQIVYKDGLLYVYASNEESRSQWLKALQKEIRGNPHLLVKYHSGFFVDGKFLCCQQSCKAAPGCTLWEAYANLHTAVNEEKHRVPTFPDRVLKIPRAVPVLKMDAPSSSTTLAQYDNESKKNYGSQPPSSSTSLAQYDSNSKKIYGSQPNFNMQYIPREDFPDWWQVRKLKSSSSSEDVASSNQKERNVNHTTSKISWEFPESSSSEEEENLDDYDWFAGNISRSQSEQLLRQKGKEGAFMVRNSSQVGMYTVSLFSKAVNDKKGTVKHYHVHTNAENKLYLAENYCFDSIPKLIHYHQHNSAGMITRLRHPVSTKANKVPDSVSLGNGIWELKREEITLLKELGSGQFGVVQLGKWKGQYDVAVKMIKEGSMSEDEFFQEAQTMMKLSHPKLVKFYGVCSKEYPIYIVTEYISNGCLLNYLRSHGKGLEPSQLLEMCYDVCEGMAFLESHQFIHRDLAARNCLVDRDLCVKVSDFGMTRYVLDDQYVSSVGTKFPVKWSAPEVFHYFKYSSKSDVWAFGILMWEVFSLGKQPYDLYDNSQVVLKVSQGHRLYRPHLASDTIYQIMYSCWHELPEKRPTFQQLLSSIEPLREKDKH
UniProt Q13555: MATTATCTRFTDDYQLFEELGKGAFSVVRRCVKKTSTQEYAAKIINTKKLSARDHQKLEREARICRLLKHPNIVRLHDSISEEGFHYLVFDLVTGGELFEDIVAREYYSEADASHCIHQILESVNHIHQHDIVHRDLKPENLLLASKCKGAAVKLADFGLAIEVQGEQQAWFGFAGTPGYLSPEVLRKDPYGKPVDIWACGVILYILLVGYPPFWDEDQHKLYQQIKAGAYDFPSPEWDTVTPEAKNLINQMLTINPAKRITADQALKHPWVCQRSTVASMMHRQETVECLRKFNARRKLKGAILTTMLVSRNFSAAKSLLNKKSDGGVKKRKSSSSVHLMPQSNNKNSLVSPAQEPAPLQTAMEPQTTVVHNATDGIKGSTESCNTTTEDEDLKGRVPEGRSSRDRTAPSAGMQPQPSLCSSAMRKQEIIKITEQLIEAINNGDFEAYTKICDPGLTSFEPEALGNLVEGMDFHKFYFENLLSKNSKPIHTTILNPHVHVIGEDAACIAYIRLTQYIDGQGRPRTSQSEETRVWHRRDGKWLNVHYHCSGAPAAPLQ
UniProt Q15131: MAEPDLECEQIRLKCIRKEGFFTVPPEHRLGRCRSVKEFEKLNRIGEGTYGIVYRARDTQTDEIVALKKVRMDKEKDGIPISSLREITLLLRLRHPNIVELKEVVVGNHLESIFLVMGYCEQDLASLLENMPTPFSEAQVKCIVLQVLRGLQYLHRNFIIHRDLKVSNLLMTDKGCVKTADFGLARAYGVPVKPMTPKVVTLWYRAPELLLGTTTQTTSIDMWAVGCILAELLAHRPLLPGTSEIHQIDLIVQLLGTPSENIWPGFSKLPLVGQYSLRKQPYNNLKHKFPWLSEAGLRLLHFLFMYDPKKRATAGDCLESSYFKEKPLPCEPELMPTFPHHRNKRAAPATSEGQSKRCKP
UniProt Q00526: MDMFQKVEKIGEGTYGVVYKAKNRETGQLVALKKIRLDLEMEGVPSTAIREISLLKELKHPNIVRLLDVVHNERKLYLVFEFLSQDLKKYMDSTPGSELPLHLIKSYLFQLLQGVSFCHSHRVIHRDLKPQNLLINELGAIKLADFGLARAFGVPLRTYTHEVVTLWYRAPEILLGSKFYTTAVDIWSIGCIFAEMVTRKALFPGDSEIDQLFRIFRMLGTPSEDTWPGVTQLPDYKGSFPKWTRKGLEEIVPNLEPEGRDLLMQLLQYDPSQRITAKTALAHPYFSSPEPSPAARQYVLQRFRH
UniProt P11802: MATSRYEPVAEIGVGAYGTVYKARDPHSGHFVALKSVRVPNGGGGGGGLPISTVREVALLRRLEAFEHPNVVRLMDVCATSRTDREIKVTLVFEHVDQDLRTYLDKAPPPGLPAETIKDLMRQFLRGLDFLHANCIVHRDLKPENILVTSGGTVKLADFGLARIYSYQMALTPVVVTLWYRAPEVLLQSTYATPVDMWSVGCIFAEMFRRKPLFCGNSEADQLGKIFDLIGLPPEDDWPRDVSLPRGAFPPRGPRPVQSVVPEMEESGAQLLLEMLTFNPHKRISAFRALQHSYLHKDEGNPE
UniProt Q00535, whole entry, looked up: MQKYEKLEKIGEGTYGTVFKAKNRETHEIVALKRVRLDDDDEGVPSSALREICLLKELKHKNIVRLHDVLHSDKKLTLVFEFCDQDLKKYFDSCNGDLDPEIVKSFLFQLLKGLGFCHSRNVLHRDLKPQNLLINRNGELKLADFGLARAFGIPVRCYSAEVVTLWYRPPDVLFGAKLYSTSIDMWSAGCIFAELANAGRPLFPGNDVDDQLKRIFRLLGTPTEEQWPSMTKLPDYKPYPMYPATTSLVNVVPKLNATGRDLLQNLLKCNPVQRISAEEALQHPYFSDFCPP
UniProt Q00534, whole entry: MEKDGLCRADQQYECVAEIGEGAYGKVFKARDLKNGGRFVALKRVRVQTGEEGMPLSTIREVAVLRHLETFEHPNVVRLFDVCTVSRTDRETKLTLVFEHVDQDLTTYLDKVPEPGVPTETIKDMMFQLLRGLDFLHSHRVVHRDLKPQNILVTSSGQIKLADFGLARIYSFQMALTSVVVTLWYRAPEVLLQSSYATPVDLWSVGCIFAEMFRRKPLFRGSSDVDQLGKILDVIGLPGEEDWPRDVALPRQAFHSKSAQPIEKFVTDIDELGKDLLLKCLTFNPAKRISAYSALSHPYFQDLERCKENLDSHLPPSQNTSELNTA

Legend:
Assay in all cases: kinase-Nluc reporter destabilization hit call (1 = scored as downregulated) (binary); higher = compound decreases kinase abundance
Details in all cases: K562; 2-18 h
[1] = target: ABL1 (UniProt P00519)
[2] = target: AKT1 (UniProt P31749)
[3] = target: ALK (UniProt Q9UM73)
[4] = target: ARAF (UniProt P10398)
[5] = target: AURKA (UniProt O14965)
[6] = target: AURKB (UniProt Q96GD4)
[7] = target: AURKC (UniProt Q9UQB9)
[8] = target: BLK (UniProt P51451)
[9] = target: BMX (UniProt P51813)
[10] = target: BRAF (UniProt P15056)
[11] = tested on: BRAF_V600E
[12] = target: BTK (UniProt Q06187)
[13] = target: CAMK2A (UniProt Q9UQM7)
[14] = target: CAMK2G (UniProt Q13555)
[15] = target: CDK10 (UniProt Q15131)
[16] = target: CDK2 (UniProt P24941)
[17] = target: CDK3 (UniProt Q00526)
[18] = target: CDK4 (UniProt P11802)
[19] = target: CDK5 (UniProt Q00535)
[20] = target: CDK6 (UniProt Q00534)

Row | SMILES | kinase-Nluc reporter destabilization hit call [1] | kinase-Nluc reporter destabilization hit call [2] | kinase-Nluc reporter destabilization hit call [3] | kinase-Nluc reporter destabilization hit call [4] | kinase-Nluc reporter destabilization hit call [5] | kinase-Nluc reporter destabilization hit call [6] | kinase-Nluc reporter destabilization hit call [7] | kinase-Nluc reporter destabilization hit call [8] | kinase-Nluc reporter destabilization hit call [9] | kinase-Nluc reporter destabilization hit call [10] | kinase-Nluc reporter destabilization hit call [11] | kinase-Nluc reporter destabilization hit call [12] | kinase-Nluc reporter destabilization hit call [13] | kinase-Nluc reporter destabilization hit call [14] | kinase-Nluc reporter destabilization hit call [15] | kinase-Nluc reporter destabilization hit call [16] | kinase-Nluc reporter destabilization hit call [17] | kinase-Nluc reporter destabilization hit call [18] | kinase-Nluc reporter destabilization hit call [19] | kinase-Nluc reporter destabilization hit call [20]
1 | O=C(CC(c1ccccc1)C(C(=O)O)C(=O)O)c1ccc(C(F)(F)F)cc1 (stereo not given) (10 µM) | inactive: 0 | inactive: 0 | inactive: 0 | inactive: 0 | inactive: 0 | inactive: 0 | inactive: 0 | inactive: 0 | inactive: 0 | inactive: 0 | inactive: 0 | inactive: 0 | inactive: 0 | inactive: 0 | inactive: 0 | inactive: 0 | inactive: 0 | inactive: 0 | inactive: 0 | inactive: 0
2 | Nc1n[nH]c(N)c1N=Nc1ccc(O)cc1 (10 µM) | inactive: 0 | inactive: 0 | inactive: 0 | inactive: 0 | inactive: 0 | inactive: 0 | inactive: 0 | inactive: 0 | inactive: 0 | inactive: 0 | inactive: 0 | inactive: 0 | inactive: 0 | inactive: 0 | inactive: 0 | inactive: 0 | inactive: 0 | inactive: 0 | inactive: 0 | inactive: 0
3 | COc1ccc(C2CC(c3ccc(Cl)cc3)=NN2c2nc(-c3ccncc3)cs2)cc1 (stereo not given) [mTOR inhibitor-8] (10 µM) | inactive: 0 | inactive: 0 | inactive: 0 | inactive: 0 | inactive: 0 | inactive: 0 | inactive: 0 | inactive: 0 | inactive: 0 | inactive: 0 | inactive: 0 | inactive: 0 | inactive: 0 | inactive: 0 | inactive: 0 | inactive: 0 | inactive: 0 | inactive: 0 | inactive: 0 | inactive: 0
4 | CC(C)(C)c1ccc(C(=O)Nc2cn3cc(-n4ccnc4)ccc3n2)cc1 (10 µM) | inactive: 0 | inactive: 0 | inactive: 0 | inactive: 0 | inactive: 0 | inactive: 0 | inactive: 0 | inactive: 0 | inactive: 0 | inactive: 0 | inactive: 0 | inactive: 0 | inactive: 0 | inactive: 0 | inactive: 0 | inactive: 0 | inactive: 0 | inactive: 0 | inactive: 0 | inactive: 0
5 | O=c1cc(N2CCOCC2)oc2c1ccc1ccccc12 (2 µM) | inactive: 0 | inactive: 0 | inactive: 0 | inactive: 0 | inactive: 0 | inactive: 0 | inactive: 0 | inactive: 0 | inactive: 0 | inactive: 0 | inactive: 0 | inactive: 0 | inactive: 0 | inactive: 0 | inactive: 0 | inactive: 0 | inactive: 0 | inactive: 0 | inactive: 0 | inactive: 0
6 | CN(c1ccc(C(F)(F)F)cc1)S(=O)(=O)c1ccc(C(=O)Nc2nc(-c3ccccn3)cs2)cc1 (2.5 µM) | inactive: 0 | inactive: 0 | inactive: 0 | inactive: 0 | inactive: 0 | inactive: 0 | inactive: 0 | inactive: 0 | inactive: 0 | inactive: 0 | inactive: 0 | inactive: 0 | inactive: 0 | inactive: 0 | inactive: 0 | inactive: 0 | inactive: 0 | inactive: 0 | inactive: 0 | inactive: 0
7 | O=C(O)/C=C/c1cc(Br)c(Br)c(Br)c1Br (10 µM) | inactive: 0 | inactive: 0 | inactive: 0 | inactive: 0 | inactive: 0 | inactive: 0 | inactive: 0 | inactive: 0 | inactive: 0 | inactive: 0 | inactive: 0 | inactive: 0 | inactive: 0 | inactive: 0 | inactive: 0 | inactive: 0 | inactive: 0 | inactive: 0 | inactive: 0 | inactive: 0
8 | Cc1cccc(-c2[nH]c(C(C)(C)C)nc2-c2ccc3c(c2)OCO3)n1 (2.5 µM) | inactive: 0 | inactive: 0 | inactive: 0 | inactive: 0 | inactive: 0 | inactive: 0 | inactive: 0 | inactive: 0 | inactive: 0 | inactive: 0 | inactive: 0 | inactive: 0 | inactive: 0 | inactive: 0 | inactive: 0 | inactive: 0 | inactive: 0 | inactive: 0 | inactive: 0 | inactive: 0
9 | COc1ccc(C(=O)c2cn(C(C)C)c3ncnc(N)c23)cc1NC(=O)Nc1ccc(Cl)cc1Cl (10 µM) | inactive: 0 | inactive: 0 | inactive: 0 | inactive: 0 | inactive: 0 | inactive: 0 | inactive: 0 | inactive: 0 | inactive: 0 | active: 1 | inactive: 0 | inactive: 0 | inactive: 0 | inactive: 0 | inactive: 0 | inactive: 0 | inactive: 0 | inactive: 0 | inactive: 0 | inactive: 0
10 | CCc1ccc(NC(=O)Nc2ccccc2)cc1 (10 µM) | inactive: 0 | inactive: 0 | inactive: 0 | inactive: 0 | inactive: 0 | inactive: 0 | inactive: 0 | inactive: 0 | inactive: 0 | inactive: 0 | inactive: 0 | inactive: 0 | inactive: 0 | inactive: 0 | inactive: 0 | inactive: 0 | inactive: 0 | inactive: 0 | inactive: 0 | inactive: 0
11 | CC[C@H](C)[C@@H]1NC(=O)[C@@H]2CCCN2C(=O)[C@@H]2CCCN2C(=O)[C@@H]2CCCN2C(=O)[C@H](CC(C)C)NC(=O)CNC(=O)CNC(=O)[C@H](Cc2ccccc2)NC1=O [Heterophyllin B] (10 µM) | inactive: 0 | inactive: 0 | inactive: 0 | inactive: 0 | inactive: 0 | inactive: 0 | inactive: 0 | inactive: 0 | inactive: 0 | inactive: 0 | inactive: 0 | inactive: 0 | inactive: 0 | inactive: 0 | inactive: 0 | inactive: 0 | inactive: 0 | inactive: 0 | inactive: 0 | inactive: 0
12 | CC(=O)Nc1nc(C)c(-c2cc3c(c(S(C)(=O)=O)c2)C(=O)N([C@@H](C)C2CC2)C3)s1 (2.5 µM) | inactive: 0 | inactive: 0 | inactive: 0 | inactive: 0 | inactive: 0 | inactive: 0 | inactive: 0 | inactive: 0 | inactive: 0 | inactive: 0 | inactive: 0 | inactive: 0 | inactive: 0 | inactive: 0 | inactive: 0 | inactive: 0 | inactive: 0 | inactive: 0 | inactive: 0 | inactive: 0
13 | COc1cc(Nc2nc3ccccc3nc2NS(=O)(=O)c2ccc(NC(=O)c3ccc(C)c(OC)c3)cc2)cc(OC)c1 (10 µM) | inactive: 0 | inactive: 0 | inactive: 0 | inactive: 0 | inactive: 0 | inactive: 0 | inactive: 0 | inactive: 0 | inactive: 0 | inactive: 0 | inactive: 0 | inactive: 0 | inactive: 0 | inactive: 0 | inactive: 0 | inactive: 0 | inactive: 0 | inactive: 0 | inactive: 0 | inactive: 0
14 | CNS(=O)(=O)C[C@H]1CC[C@H](N(C)c2[nH]cnc3nccc2-3)CC1 [Oclacitinib (maleate)] (10 µM) | inactive: 0 | inactive: 0 | inactive: 0 | inactive: 0 | inactive: 0 | inactive: 0 | inactive: 0 | inactive: 0 | inactive: 0 | inactive: 0 | inactive: 0 | inactive: 0 | inactive: 0 | inactive: 0 | inactive: 0 | inactive: 0 | inactive: 0 | inactive: 0 | inactive: 0 | inactive: 0
15 | N#C/C(=C\c1ccc[nH]1)c1ccc(Cl)c(Cl)c1 (2.5 µM) | inactive: 0 | inactive: 0 | inactive: 0 | inactive: 0 | inactive: 0 | inactive: 0 | inactive: 0 | inactive: 0 | inactive: 0 | inactive: 0 | inactive: 0 | inactive: 0 | inactive: 0 | inactive: 0 | inactive: 0 | inactive: 0 | inactive: 0 | inactive: 0 | inactive: 0 | inactive: 0
16 | COc1ccc(COc2cc3oc(=O)c4cc(C(C)O)ccc4c3cc2OC)cc1 (stereo not given) [Palomid 529] (2.5 µM) | inactive: 0 | inactive: 0 | inactive: 0 | inactive: 0 | inactive: 0 | inactive: 0 | inactive: 0 | inactive: 0 | inactive: 0 | inactive: 0 | inactive: 0 | inactive: 0 | inactive: 0 | inactive: 0 | inactive: 0 | inactive: 0 | inactive: 0 | inactive: 0 | inactive: 0 | inactive: 0

Three structures already listed, ordered by count of non-hydrogen atoms, low to high:
Row | SMILES | kinase-Nluc reporter destabilization hit call [1] | kinase-Nluc reporter destabilization hit call [2] | kinase-Nluc reporter destabilization hit call [3] | kinase-Nluc reporter destabilization hit call [4] | kinase-Nluc reporter destabilization hit call [5] | kinase-Nluc reporter destabilization hit call [6] | kinase-Nluc reporter destabilization hit call [7] | kinase-Nluc reporter destabilization hit call [8] | kinase-Nluc reporter destabilization hit call [9] | kinase-Nluc reporter destabilization hit call [10] | kinase-Nluc reporter destabilization hit call [11] | kinase-Nluc reporter destabilization hit call [12] | kinase-Nluc reporter destabilization hit call [13] | kinase-Nluc reporter destabilization hit call [14] | kinase-Nluc reporter destabilization hit call [15] | kinase-Nluc reporter destabilization hit call [16] | kinase-Nluc reporter destabilization hit call [17] | kinase-Nluc reporter destabilization hit call [18] | kinase-Nluc reporter destabilization hit call [19] | kinase-Nluc reporter destabilization hit call [20]
2 | Nc1n[nH]c(N)c1N=Nc1ccc(O)cc1 (10 µM) | inactive: 0 | inactive: 0 | inactive: 0 | inactive: 0 | inactive: 0 | inactive: 0 | inactive: 0 | inactive: 0 | inactive: 0 | inactive: 0 | inactive: 0 | inactive: 0 | inactive: 0 | inactive: 0 | inactive: 0 | inactive: 0 | inactive: 0 | inactive: 0 | inactive: 0 | inactive: 0
5 | O=c1cc(N2CCOCC2)oc2c1ccc1ccccc12 (2 µM) | inactive: 0 | inactive: 0 | inactive: 0 | inactive: 0 | inactive: 0 | inactive: 0 | inactive: 0 | inactive: 0 | inactive: 0 | inactive: 0 | inactive: 0 | inactive: 0 | inactive: 0 | inactive: 0 | inactive: 0 | inactive: 0 | inactive: 0 | inactive: 0 | inactive: 0 | inactive: 0
14 | CNS(=O)(=O)C[C@H]1CC[C@H](N(C)c2[nH]cnc3nccc2-3)CC1 [Oclacitinib (maleate)] (10 µM) | inactive: 0 | inactive: 0 | inactive: 0 | inactive: 0 | inactive: 0 | inactive: 0 | inactive: 0 | inactive: 0 | inactive: 0 | inactive: 0 | inactive: 0 | inactive: 0 | inactive: 0 | inactive: 0 | inactive: 0 | inactive: 0 | inactive: 0 | inactive: 0 | inactive: 0 | inactive: 0
